This is one part of the list. Further columns of the screen follow, without active or inactive calls. Most of these compounds were active or inconclusive in the main read-out, so they are no random draw. Potencies come from curve fits of mixed quality, noted in brackets.
Experiment: qHTS Assay for Lipid Storage Modulators in Drosophila S3 Cells;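 for cell number change: cells counted by Cell Tracker Red CMTPX staining in the red channel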
Details: BODIPY lipid droplet fluorescence, 18-24 h; for cell number change: measured here: cell count max response, cells fed with added oleic acid
Procedure, shortened: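 Drosophila S3 cells got compounds at several concentrations plus oleic acid (400 uM solution). Laser-scanning cytometry with 488 nm excitation read lipid droplets at 500-530 nm and cells at 575-640 nm. Percent activity was relative to 20 uM Triacsin C.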

[1] = measured here: cell number channel AC50, cells fed with added oleic acid
[2] = measured here: lipid fluorescence (Fed channel) AC50, cells fed with added oleic acid

Compound	cell number change	AC50 [1]	AC50 [2]
CCCCn1c(N)c(N(CC(C)C)C(=O)c2cc(S(=O)(=O)N3CCOCC3)ccc2Cl)c(=O)[nH]c1=O	39.6%	16.4 µM [rising, single point]	–
Oc1ccc(Cn2ccnc2)c2cccnc12	-31.2%	–	32.6 µM [falling, single point]
Cc1ccc(NC(=O)[C@@H](NC(=O)c2cccc(S(=O)(=O)N3CCOCC3)c2)C(C)C)cc1C	22.9%	–	7.31 µM [falling, single point]
CCOc1ccc(-c2nc(CSCC(=O)N3CCN(C(=O)c4ccco4)CC3)c(C)o2)cc1	-8.8%	–	0.00411 µM [rising, full curve, poor fit]
COc1ccc(C(=O)NCCN2CCOCC2)cc1S(=O)(=O)Nc1ccc(C)cc1	11.3%	–	–
COc1cccc(C(=O)N(C)C(C)c2nc3ccccc3s2)c1 (stereo not drawn)	3.33%	–	0.116 µM [rising, full curve, poor fit]
O=C(Nc1cccc(C(F)(F)F)c1)c1ccccc1NC(=O)C1CCCCC1	-9.1%	–	18.4 µM [falling, single point]
O=C(CN1CCOCC1)N1c2ccccc2Sc2ccccc21	18.1%	0.58 µM [rising, full curve, poor fit]	–
Cc1ccc(S(=O)(=O)CC(=O)NC2CC2)cc1	-43.7%	32.6 µM [falling, single point]	29.1 µM [falling, partial curve]
Cc1cccc(NC(=O)c2ccc(Cl)c(S(=O)(=O)N3CCCCCC3)c2)n1	8.33%	–	2.31 µM [rising, partial curve]
O=C(CCCCC(=O)NCc1cccs1)NCc1cccs1	–	–	23.1 µM [falling, partial curve]
COc1ccc(NC(=O)c2nnn(Cc3cccc(F)c3)c2N)c(OC)c1	17%	–	0.13 µM [rising, full curve, poor fit]
COc1ccccc1Nc1nc(-c2ccccc2)nc2ccccc12	8.29%	–	7.31 µM [rising, partial curve, poor fit]
CN(C)C/C=C/C(O)(c1ccccc1)c1ccccc1	-33.9%	–	–
Cc1ccc(S(=O)(=O)N2CCCC(C(=O)NCc3ccccc3F)C2)cc1 (stereo not drawn)	-1.32%	–	–
O=C(NCc1ccccc1)c1ccc(CS(=O)(=O)c2ccc(Br)cc2)o1	1.21%	–	29.1 µM [rising, single point]
O=C(C1CCN(S(=O)(=O)c2ccc(Cl)c(C(F)(F)F)c2)CC1)N1CCC1	-15.1%	–	29.1 µM [falling, single point]
Cc1cccc(NC(=O)Cn2ccn(-c3ccc4c(c3)OCCO4)c(=O)c2=O)c1	–	–	6.51 µM [falling, single point]
O=C(COC(=O)c1ccc(S(=O)(=O)NCc2ccco2)cc1)Nc1ncc(Cl)cc1Cl	2.45%	0.116 µM [falling, full curve]	–
O=C(c1cc2ccccn2n1)N1CCCC1	-10%	1.16 µM [falling, partial curve, poor fit]	0.461 µM [falling, partial curve]

Single records, from the list above. Values in the order: cell number change | AC50 [1] | AC50 [2]
`Oc1ccc(Cn2ccnc2)c2cccnc12` in the list: -31.2% | – | 32.6 µM [falling, single point]
`O=C(C1CCN(S(=O)(=O)c2ccc(Cl)c(C(F)(F)F)c2)CC1)N1CCC1` in the list: -15.1% | – | 29.1 µM [falling, single point]

Going on with the list.

Compound	cell number change	AC50 [1]	AC50 [2]
COc1ccc2nc(NNC(=O)c3cc(=O)c4ccccc4o3)sc2c1	–	–	5.8 µM [falling, full curve]
COC(=O)c1cccc(NC(=O)CC2C(=O)NCCN2C(=O)Nc2ccccc2)c1 (stereo not drawn)	–	–	16.4 µM [rising, partial curve, poor fit]
CNCc1cc(Br)c(OCC(=O)Nc2ccccc2OC)c(OC)c1	-77.5%	1.16 µM [falling, full curve, poor fit]	16.4 µM [falling, partial curve]
COC(=O)c1sc2nc(CSc3nc4ccc(C)cc4[nH]3)[nH]c(=O)c2c1C	36.8%	29.1 µM [rising, single point]	–
COc1ccccc1NC(=S)NNC(=O)c1cc(C)nn1C	18.4%	6.51 µM [rising, single point]	6.51 µM [rising, single point]
Cc1ccc(NC(=O)CSc2ccc(-c3ccccn3)nn2)c(C)c1	–	–	6.51 µM [rising, partial curve, poor fit]
CCCCC(=O)Nc1cc2nn(-c3ccc(OC)cc3)nc2cc1C	–	0.411 µM [rising, full curve, poor fit]	2.91 µM [rising, single point]
O=C(Nc1ccccc1C(=O)O)c1ccccc1	-1.11%	–	0.411 µM [falling, full curve, poor fit]
Cc1nc(-c2ccc(Cl)cc2)sc1C1(C)CC(c2cccc([N+](=O)[O-])c2)=NO1 (stereo not drawn)	4.03%	–	2.06 µM [rising, full curve]
Cc1ccc(-c2nc(NCc3ccco3)c3ccccc3n2)cc1	-23.7%	–	1.64 µM [falling, partial curve]
O=C(c1cc2ccccc2o1)N1CCN(Cc2ccccc2)CC1	92%	29.1 µM [rising, partial curve, poor fit]	1.46 µM [rising, full curve]
CCCCn1c(N)c(N(CC(C)C)C(=O)Cn2c(=O)cnc3ccccc32)c(=O)[nH]c1=O	-0.5%	–	–
C[C@]12CC[C@@H]3c4ccc(OS(=O)(=O)O)cc4CC[C@H]3[C@@H]1CCC2=O	-29.6%	–	32.6 µM [falling, partial curve, poor fit]
CCOC(=O)N1CCN(S(=O)(=O)c2ccc(F)c(C(=O)Nc3cccc(C)c3C)c2)CC1	-1.15%	–	0.731 µM [falling, single point]
C/C=C/C=C\C(=O)Nc1cccc(C2=NOC3(C2)C[C@@H](C(N)=O)N(C(=O)/C(C)=C/C)C3)c1 (stereo partly drawn)	22.3%	–	16.4 µM [rising, single point]
O=C1NC(=O)/C(=C\c2cn(CC(=O)N3CCOCC3)c3ccccc23)S1	0.952%	–	–
CC(CCc1ccc(O)cc1)N1CCC(Oc2ccc(C(=O)N3CCCC3)cc2)CC1 (stereo not drawn)	24.4%	0.082 µM [rising, full curve, poor fit]	20.6 µM [rising, partial curve]
COc1ccccc1N1CCN(C(=O)C(C)N(c2ccc(C)c(C)c2)S(C)(=O)=O)CC1 (stereo not drawn)	-0.944%	–	20.6 µM [rising, single point]
COC(=O)c1c(C)n(-c2ccccc2)c2ccc(O)cc12	-6.32%	–	20.6 µM [falling, single point]
O=c1c([N+](=O)[O-])c(O)c2ccccc2n1Cc1ccccc1	-0.118%	–	9.2 µM [rising, partial curve]

Compound	cell number change	AC50 [1]	AC50 [2]
COc1cc(CNC(=O)C2CCC(=O)N(C3CCCCCC3)C2)cc(OC)c1 (stereo not drawn)	-16.8%	–	29.1 µM [falling, single point]
COc1cc(/C=C/C(=O)NNc2c(F)c(F)cc(F)c2F)ccc1OC(F)F	95.6%	9.2 µM [rising, partial curve]	0.00517 µM [falling, full curve, poor fit]
Cc1cccc(S(=O)(=O)NNC(=O)c2sc(C)nc2C)c1	-0.122%	–	0.0206 µM [falling, full curve, poor fit]
CCc1cc(/C(Cc2ccccn2)=N\Nc2ccccc2)c(O)cc1O	57.9%	14.6 µM [rising, partial curve]	–
CNC(=O)c1[nH]cnc1C(=O)N[C@@H](Cc1ccccc1)C(=O)OCc1ccccc1	–	–	0.259 µM [falling, partial curve, poor fit]
COc1ccccc1NS(=O)(=O)c1ccc(NC(=O)c2ccncc2)cc1	–	6.51 µM [rising, single point]	–
Cc1cc(-n2c(C)cc(C(=O)COc3ccccc3[N+](=O)[O-])c2C)no1	-19.4%	–	–
Cc1cccc(NC(=O)CNC(=O)Cc2ccc3c(c2)OCCO3)c1C	9.84%	0.092 µM [falling, full curve, poor fit]	0.0651 µM [falling, full curve, poor fit]
O=C(NCCCN1CCOCC1)c1cc2c([nH]c3ccccc32)c(-c2cccc(Br)c2)n1	-7.64%	–	7.31 µM [falling, partial curve, poor fit]
CCOC(=O)CSc1nnc(CNc2ccc(Cl)cc2)n1Cc1ccccc1	-26.2%	–	25.9 µM [falling, single point]
CCOc1ncccc1C(=O)Nc1cc(S(=O)(=O)N2CCOCC2)ccc1N1CCCC1	39.7%	–	29.1 µM [rising, single point]
Cc1ccc2cc(CNC(C)C)c(=O)[nH]c2c1	38.3%	–	29.1 µM [rising, single point]
Cc1nc(C)c(C(=O)N/N=C/c2ccco2)s1	–	0.291 µM [rising, partial curve]	0.231 µM [rising, full curve]
CCN(CC)c1ccc(S(=O)(=O)N2CCOCC2)cc1NS(C)(=O)=O	–	0.58 µM [falling, single point]	–
O=C(CN(C(=O)CCC(=O)Nc1nccs1)c1ccc(F)cc1)NCc1ccc2c(c1)OCO2	-8.56%	–	–
CN1CCSc2ccc(C(=O)Nc3ccc(Cl)cc3)cc21	-5.4%	–	–
COc1ccc(C=O)cc1COc1ccc([N+](=O)[O-])c(C)c1	23.5%	0.58 µM [falling, full curve]	–
CC(CN1C(C)CCCC1C)OC(=O)c1cccc(Br)c1 (stereo not drawn)	–	–	0.00461 µM [rising, full curve, poor fit]
O=c1[nH]c2ccccc2c(=O)n1Cc1ccco1	14%	–	–

Gathered by group, those above containing a thiophene ring, fused or not (2)
Compound	cell number change	AC50 [1]	AC50 [2]
O=C(CCCCC(=O)NCc1cccs1)NCc1cccs1	–	–	23.1 µM [falling, partial curve]
COC(=O)c1sc2nc(CSc3nc4ccc(C)cc4[nH]3)[nH]c(=O)c2c1C	36.8%	29.1 µM [rising, single point]	–

Source: PubChem BioAssay AID2685 (National Center for Advancing Translational Sciences (NCATS), 2010)
